The values that follow come from PMC6925144, “A prospective compound screening contest identified broader inhibitors for Sirtuin 1” (Scientific Reports, 2019).

Sequences of proteins named here, by UniProt entry; tags and fusion partners are left off. Residues count along the entry.
UniProt Q96EB6, 2-747 limits assumed: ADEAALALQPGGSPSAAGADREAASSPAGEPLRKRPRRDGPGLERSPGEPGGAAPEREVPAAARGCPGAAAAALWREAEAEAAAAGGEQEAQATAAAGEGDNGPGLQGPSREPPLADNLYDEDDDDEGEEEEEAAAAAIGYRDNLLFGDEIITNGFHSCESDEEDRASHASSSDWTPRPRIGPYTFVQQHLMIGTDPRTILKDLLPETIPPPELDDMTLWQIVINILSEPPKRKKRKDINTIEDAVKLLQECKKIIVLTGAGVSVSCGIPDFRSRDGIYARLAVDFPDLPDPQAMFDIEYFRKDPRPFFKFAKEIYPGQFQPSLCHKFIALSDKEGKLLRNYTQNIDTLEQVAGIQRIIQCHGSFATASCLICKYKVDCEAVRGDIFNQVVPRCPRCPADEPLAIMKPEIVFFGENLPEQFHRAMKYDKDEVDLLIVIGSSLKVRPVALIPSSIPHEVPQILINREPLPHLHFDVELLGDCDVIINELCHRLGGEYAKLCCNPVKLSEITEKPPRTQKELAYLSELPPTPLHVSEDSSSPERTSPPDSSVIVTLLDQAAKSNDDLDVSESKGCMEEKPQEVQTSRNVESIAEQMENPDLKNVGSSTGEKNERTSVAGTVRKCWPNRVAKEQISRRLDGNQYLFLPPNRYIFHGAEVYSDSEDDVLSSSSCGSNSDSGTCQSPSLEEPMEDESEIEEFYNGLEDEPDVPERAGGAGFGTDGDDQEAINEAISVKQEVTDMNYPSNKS

Structures are written as SMILES. The full ranking holds about 3,200 compounds; the median of “TSA(with NAD+) / Primary screening (TSA) / delta Tm (K)” is about -0.04, and the highest 2% start at about 0.37. This is one part of the list.

The target in this experiment is NAD-dependent deacetylase Sirtuin 1 (human, UniProt Q96EB6). Put plainly: primary screen, delta tm. Conditions: 10 µM. Set-up: single well (n = 1, as 'the same TSA'). As to the method:
A total of 3,192 compounds extracted from the proposed lists were first screened by thermal shift assay (TSA), which determined a melting temperature shift (ΔTm) of Sirtuin 1 upon the addition of a test compound at a concentration of 10 µM (n = 1) with primary hit criteria of ΔTm > 0.45 K or ΔTm < −1.5 K. Primary hits (48 compounds) were retested in the same assay at three concentrations (5, 10, 20 µM, n = 4) for hit confirmation and for dose-dependency check. Secondary hits (41 compounds) were checked their selectivity for Sirtuin 1 based on counterscreening on unrelated protein targets (bovine carbonic anhydrase (CA) and recombinant SH2 domain of hABL1 kinase (ABL1)) at three different concentrations (5, 10, 20 µM, n = 4), which yielded 38 hit compounds, hereafter referred to as TSA hits. The TSA screening above was conducted in the absence of NAD+. As noted, the structure of Sirtuin 1 is different in the presence of NAD+ and substrate. The chemical profile of TSA hits found from the different conditions could be different. […] As a result, 39 TSA hits were found.
Regarding `NC(=O)C1CCN(c2nc(-c3cccs3)nc3sc4c(c23)CCCC4)CC1`, the “TSA(with NAD+) / Primary screening (TSA) / delta Tm (K)” value is given as 2.33 K.

On to `O=C(O)c1cc(/N=C/c2c(O)ccc3ccccc23)ccc1O`, for which the “TSA(with NAD+) / Primary screening (TSA) / delta Tm (K)” value is -0.01 K.

Regarding `NC(=O)c1cc(NC(=O)c2ccc(-c3ccccc3Cl)o2)ccc1Cl`, the “TSA(with NAD+) / Primary screening (TSA) / delta Tm (K)” value was -0.04 K.

As to `CCCCCc1nnc(NC(=O)c2cccc(S(=O)(=O)N(C)c3ccc(OC)cc3)c2)s1`, the “TSA(with NAD+) / Primary screening (TSA) / delta Tm (K)” value was found to be 0.35 K.

For the compound `COC(=O)c1ccc(C2C(C(=O)c3cccc(OC)c3)=C(O)C(=O)N2CCCN2CCOCC2)cc1` (stereo not shown), the “TSA(with NAD+) / Primary screening (TSA) / delta Tm (K)” value was found to be 0.15 K.

On to `COc1ccc(C2C(C(=O)/C=C/c3ccco3)=C(O)C(=O)N2CCN2CCOCC2)cc1` (stereo not shown), for which the “TSA(with NAD+) / Primary screening (TSA) / delta Tm (K)” value was found to be 0.07 K.

For `Cn1cc(S(=O)(=O)N2CCC(C(=O)NCCOc3ccccc3)CC2)cc1C(N)=O`, the “TSA(with NAD+) / Primary screening (TSA) / delta Tm (K)” value is reported as 0.09 K.

For `Cc1sc(NC(=O)c2cnc3ccccc3n2)nc1-c1ccc(F)c(F)c1`, the “TSA(with NAD+) / Primary screening (TSA) / delta Tm (K)” value is 0.06 K.

Consider `COc1ccc(/C=C2/Oc3ccc(Br)cc3C2=O)cc1`, for which the “TSA(with NAD+) / Primary screening (TSA) / delta Tm (K)” value is on record as -0.01 K.

Consider `Fc1ccc(-c2cn3cc(Cl)cc(Cl)c3n2)cc1`, for which the “TSA(with NAD+) / Primary screening (TSA) / delta Tm (K)” value is -0.15 K.

For `NC(=O)c1cc(NCC(=O)N2CCc3ccccc32)c(F)cc1F`, the “TSA(with NAD+) / Primary screening (TSA) / delta Tm (K)” value is reported as -0.38 K.

As for `CCOC(=O)C1=C(COC(=O)c2sc(-c3ccco3)nc2-c2ccccc2)NC(=O)NC1`, the “TSA(with NAD+) / Primary screening (TSA) / delta Tm (K)” value is recorded as 0.06 K.

Consider `NC(=O)c1ccc(S(=O)(=O)N2CCN(c3ncnc4ccccc34)CC2)o1`, for which the “TSA(with NAD+) / Primary screening (TSA) / delta Tm (K)” value is recorded as 0.05 K.

Consider `NC(=O)c1ccc(/C=C/C(=O)N2CCC(C(=O)O)(c3ccccc3)CC2)cc1`, for which the “TSA(with NAD+) / Primary screening (TSA) / delta Tm (K)” value is 0.06 K.

Take `NC(=O)c1c(NC(=O)CSc2nc3sc4c(c3c(=O)n2-c2ccccc2)CCC4)sc2c1CCC2`: the “TSA(with NAD+) / Primary screening (TSA) / delta Tm (K)” value was -0.16 K.

Turning to `Cc1ccc(N(C)S(=O)(=O)c2cccc(C(=O)N(C)Cc3ccccc3Cl)c2)cc1`, the “TSA(with NAD+) / Primary screening (TSA) / delta Tm (K)” value is -0.11 K.

For the compound `C=C(C)CNC(=S)NC(C)c1cccc(NC(=O)c2ccccc2)c1` (stereo not shown), the “TSA(with NAD+) / Primary screening (TSA) / delta Tm (K)” value is on record as -0.09 K.

Turning to `CS(=O)c1ccc(C(=O)Nc2ccccc2NC(=O)N2CCCC2)cc1` (stereo not shown), the “TSA(with NAD+) / Primary screening (TSA) / delta Tm (K)” value is reported as -0.15 K.

Take `Cn1ccnc1C(NCc1csc(-c2ccsc2)n1)c1cccc(F)c1` (stereo not shown): the “TSA(with NAD+) / Primary screening (TSA) / delta Tm (K)” value is -0.01 K.

In the case of `COc1cccc(C2C(C(=O)c3cc4ccccc4o3)=C(O)C(=O)N2CCCN2CCOCC2)c1` (stereo not shown), the “TSA(with NAD+) / Primary screening (TSA) / delta Tm (K)” value is recorded as 0.03 K.

On to `O=C(CN(Cc1ccco1)C(=O)Cc1coc2cc(O)ccc12)Nc1ccccc1C(F)(F)F`, for which the “TSA(with NAD+) / Primary screening (TSA) / delta Tm (K)” value was -0.03 K.

Consider `O=C(Nc1cccc(S(=O)(=O)N2CCOCC2)c1)c1cn(-c2ccccc2)nc1-c1ccc(F)cc1`, for which the “TSA(with NAD+) / Primary screening (TSA) / delta Tm (K)” value is on record as 0.39 K.

On to `CCC(C)(N)CC`, for which the “TSA(with NAD+) / Primary screening (TSA) / delta Tm (K)” value came out at 0.08 K.

Turning to `CC1(C)CC1N` (stereo not shown), the “TSA(with NAD+) / Primary screening (TSA) / delta Tm (K)” value is reported as -0.18 K.

In the case of `COc1ccnc(C(=O)NCC(C)(C)N2CCC(N(C)C)CC2)c1`, the “TSA(with NAD+) / Primary screening (TSA) / delta Tm (K)” value is on record as -0.14 K.

Consider `O=c1[nH]cnc2c1ncn2-c1ccccc1`, for which the “TSA(with NAD+) / Primary screening (TSA) / delta Tm (K)” value is -0.02 K.

Take `Cc1nc(N2CCC(C(N)=O)CC2)c2c3c(sc2n1)CCC3`: the “TSA(with NAD+) / Primary screening (TSA) / delta Tm (K)” value was 0.01 K.

On to `c1ccc2c(c1)oc1c(N3CCN(Cc4cn5ccccc5n4)CC3)ncnc12`, for which the “TSA(with NAD+) / Primary screening (TSA) / delta Tm (K)” value is given as -0.09 K.

As to `CCn1c(-c2ccccc2)c(C(=O)CCl)c2ccccc21`, the “TSA(with NAD+) / Primary screening (TSA) / delta Tm (K)” value came to 0.01 K.

`CC(OC(=O)CCc1nc2ccccc2c(=O)[nH]1)C(=O)NCc1ccco1` (stereo not shown): the “TSA(with NAD+) / Primary screening (TSA) / delta Tm (K)” value was -0.06 K.

On to `NCCCCF`, for which the “TSA(with NAD+) / Primary screening (TSA) / delta Tm (K)” value is listed as -0.09 K.

On to `CC(C)(C)CC(N)CN` (stereo not shown), for which the “TSA(with NAD+) / Primary screening (TSA) / delta Tm (K)” value was -0.18 K.

With `CCC(=O)NN`, the “TSA(with NAD+) / Primary screening (TSA) / delta Tm (K)” value is 0.01 K.

`CCCCCCOc1ccc(C=C2C(=O)NC(=S)NC2=O)cc1`: the “TSA(with NAD+) / Primary screening (TSA) / delta Tm (K)” value is listed as -0.05 K.

Take `CC(O)CNc1ncnc2ccsc12` (stereo not shown): the “TSA(with NAD+) / Primary screening (TSA) / delta Tm (K)” value is listed as 0.05 K.

As to `CC(c1nc(-c2ccccc2)no1)N1CCN(c2nc(C(F)(F)F)nc3ccccc23)CC1` (stereo not shown), the “TSA(with NAD+) / Primary screening (TSA) / delta Tm (K)” value is reported as 0.16 K.

In the case of `O=c1cc(COc2cccc([N+](=O)[O-])c2)nc2ccccn12`, the “TSA(with NAD+) / Primary screening (TSA) / delta Tm (K)” value is listed as -0.03 K.

`Nc1ccc2c(c1)ncn2-c1ccccc1`: the “TSA(with NAD+) / Primary screening (TSA) / delta Tm (K)” value stood at 0.07 K.

Regarding `O=C1CN(c2ccc(NC(=O)CCCc3nc4ccccc4[nH]3)cn2)CCN1`, the “TSA(with NAD+) / Primary screening (TSA) / delta Tm (K)” value is reported as -0.21 K.

As to `COc1ccccc1CC(=O)Nc1cc2c(=O)[nH]cnc2cc1F`, the “TSA(with NAD+) / Primary screening (TSA) / delta Tm (K)” value is reported as -0.13 K.

For the compound `O=C1NC(=O)C(=Cc2ccc(-c3ccc(Cl)c(Cl)c3)o2)C(=O)N1`, the “TSA(with NAD+) / Primary screening (TSA) / delta Tm (K)” value was -0.62 K.

In the case of `Cc1ccccc1C(=O)NCC(=O)OC(C)C(=O)NCc1ccco1` (stereo not shown), the “TSA(with NAD+) / Primary screening (TSA) / delta Tm (K)” value is reported as -0.06 K.

Consider `Cc1ccc(C)n1-c1sc2c(c1C#N)CCCC2`, for which the “TSA(with NAD+) / Primary screening (TSA) / delta Tm (K)” value is on record as -0.12 K.

In the case of `Cc1cc(C)n(CC(=O)N/N=C/c2cn(-c3ccccc3)nc2-c2cc3ccccc3oc2=O)n1`, the “TSA(with NAD+) / Primary screening (TSA) / delta Tm (K)” value was determined as 0.03 K.

`CCOc1nc2cc(C(=O)O[C@H]3CCOC3)ccc2[nH]1`: the “TSA(with NAD+) / Primary screening (TSA) / delta Tm (K)” value was -0.15 K.

Take `c1nc(N2CCCC3(C2)OCCO3)c2sccc2n1`: the “TSA(with NAD+) / Primary screening (TSA) / delta Tm (K)” value stood at 0.06 K.

For `CC(N)(CN)C1CC1` (stereo not shown), the “TSA(with NAD+) / Primary screening (TSA) / delta Tm (K)” value is listed as -0.01 K.

As for `Cc1cccc(Cl)c1OCC(=O)NCC(F)(F)F`, the “TSA(with NAD+) / Primary screening (TSA) / delta Tm (K)” value is given as -0.18 K.

For `Cc1ccccc1OC(=O)C1CCN(S(=O)(=O)c2cc(C(N)=O)n(C)c2)CC1`, the “TSA(with NAD+) / Primary screening (TSA) / delta Tm (K)” value is on record as -0.12 K.
